Reference: article PMC3789969, “The Allosteric Role of the AAA^+ Domain of ChlD Protein from the Magnesium Chelatase of Synechocystis Species PCC 6803” (The Journal of Biological Chemistry, 2013)
No constants are given. Whether binding was seen depends on the method and setting.

Protein sequences, listed by entry. Tags and fused reporters are not part of them. Lines headed by an entry give the natural chain unless they say otherwise; changes in a name come on top.
UniProt P72772: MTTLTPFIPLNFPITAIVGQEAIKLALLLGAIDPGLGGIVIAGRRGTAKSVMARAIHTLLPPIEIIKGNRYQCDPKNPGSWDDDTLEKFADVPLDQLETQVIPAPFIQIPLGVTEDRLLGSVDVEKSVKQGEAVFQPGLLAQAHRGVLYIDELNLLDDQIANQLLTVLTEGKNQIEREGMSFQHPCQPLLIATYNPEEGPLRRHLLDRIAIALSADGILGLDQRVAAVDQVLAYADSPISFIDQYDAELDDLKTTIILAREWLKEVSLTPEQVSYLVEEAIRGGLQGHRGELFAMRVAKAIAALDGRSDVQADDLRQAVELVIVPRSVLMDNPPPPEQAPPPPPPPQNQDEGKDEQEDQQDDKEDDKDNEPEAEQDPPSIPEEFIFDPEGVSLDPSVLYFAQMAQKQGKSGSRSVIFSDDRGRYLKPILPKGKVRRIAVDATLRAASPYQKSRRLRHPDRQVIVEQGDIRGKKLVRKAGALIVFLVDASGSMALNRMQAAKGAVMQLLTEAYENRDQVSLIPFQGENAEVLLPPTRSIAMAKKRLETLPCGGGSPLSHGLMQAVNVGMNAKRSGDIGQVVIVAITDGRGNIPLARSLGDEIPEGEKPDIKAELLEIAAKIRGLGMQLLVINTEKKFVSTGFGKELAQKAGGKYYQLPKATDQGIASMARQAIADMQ

Assays:
Experiment in all cases: condition: only in the absence of nucleotide (2 μM ChlI, 2 μM ChlD); pull-down; co-purification on Ni(II) chelating Sepharose through His6-ChlD; 2 μM ChlD and 2 μM ChlI, without nucleotide, 15 mM MgCl2, 50 mM Tricine, 0.3 M glycerol, pH 7.9, room temperature; SDS-PAGE of the resin; both purified
[1] = target: His6-ChlD (E152Q), Walker B mutant (Synechocystis sp. PCC 6803) (UniProt P72772)
[2] = target: His6-ChlD (K49A), Walker A mutant (Synechocystis sp. PCC 6803) (UniProt P72772)
[3] = target: His6-ChlD, wild type, of the magnesium chelatase of Synechocystis sp. PCC 6803 (Synechocystis sp. PCC 6803) (UniProt P72772)
[4] = target: His6-ChlD (R289A), Sensor II mutant (Synechocystis sp. PCC 6803) (UniProt P72772)
[5] = target: His6-ChlD (R208A), arginine finger mutant (Synechocystis sp. PCC 6803) (UniProt P72772)

Measured: binding

B1: ChlI protein of the magnesium chelatase of Synechocystis sp. PCC 6803 (protein, UniProt P51634 1-357)
chain: MTATLAAPSKTRRVVFPFTAIVGQDEMKLALLLNVIDPKIGGVMIMGDRGTGKSTTIRALADLLPEIEVVANDPFNSSPSDPEMMSEEVRIRVDSQEPLSIVKKKVTMVDLPLGATEDRVCGTIDIEKALSEGVKAFEPGLLAKANRGILYVDEVNLLDDHLVDVLLDSAAGGWNTVEREGISIRHPARFVLVGSGNPEEGELRPQLLDRFGMHAEIRTVREPELRVKIVEQRTEFDQNPHPFCDQYQTEQEALQAKIVNAQNLLPQVTIDYDYRVKVSEVCAELDVDGLRGDIVTNRAAKALAAFEGRTEVTVDDISRVIVLCLRHRLRKDPLESIDSGSKVEKVFKRVFGVVDEA
no binding: [1] | [2] | [3] | [4] | [5]
